Earlier results as cited in patent US20060013871A1 (priority 2003, published 2006).
Like-named read-outs stand apart in the source and are kept apart here.

Details: cited from earlier work

CC(C)Cc1ccc(C(C)C(=O)O)cc1 (centres unmarked) [Ibuprofen]
solubility (pH 1.0): almost insoluble
solubility (pH 7.0): soluble
